Data from paper PMC7819943, “Rice protein-binding microarrays: a tool to detect cis-acting elements near promoter regions in rice”.
This is one part of the list.

These sequences were tested against T1, OsSMF1 (Oryza sativa, UniProt Q6ZLB0 1-436) (assay: protein-binding microarray (RPBM); PBS, 2% BSA, 51.3 ng/ul salmon testes DNA, 50 uM zinc acetate, 200 nM TF, 25 C, 1 h; high values mean tight binding). Settings: protein: recombinant; tags: N-terminal polyhistidine and DsRed monomer fusion (pET32a); chain copies: 2; label: CyDye5-dUTP incorporated in the synthesized complementary strand; 3' TTTTT single-stranded linker to array surface; dsDNA, one strand shown.
T1 sequence: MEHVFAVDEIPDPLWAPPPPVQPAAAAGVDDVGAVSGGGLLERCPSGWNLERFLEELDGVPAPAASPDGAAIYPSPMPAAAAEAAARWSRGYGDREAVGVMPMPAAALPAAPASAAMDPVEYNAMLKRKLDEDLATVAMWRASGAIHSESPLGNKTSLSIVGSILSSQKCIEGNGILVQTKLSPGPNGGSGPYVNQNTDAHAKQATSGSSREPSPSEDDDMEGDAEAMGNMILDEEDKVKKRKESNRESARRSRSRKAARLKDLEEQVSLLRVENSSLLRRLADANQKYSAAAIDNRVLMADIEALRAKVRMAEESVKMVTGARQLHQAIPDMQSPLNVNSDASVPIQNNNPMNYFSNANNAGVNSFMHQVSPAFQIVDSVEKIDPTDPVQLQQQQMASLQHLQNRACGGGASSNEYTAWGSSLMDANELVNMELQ
In short: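 The binding signal is fluorescence intensity per feature, in arbitrary units, read on an Axon 4000B scanner. Polyhistidine- and DsRed-tagged transcription factors (N-terminal fusions) from E. coli BL21-CodonPlus were purified on Ni–NTA and applied at 200 nM for 1 h at 25 °C to a double-stranded, BSA-blocked custom Agilent array in buffer with 50 µM zinc acetate.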

Sequence	binding signal
AAGCCTGGTATGAATCTGGCCGGGACTGACGTGCCAACTCCGGAGTCACCTAGTGCAG	4480 fluorescence intensity (a.u.)
AAGGGAGTCCGCGGCCCGCCGTCGACGCCGCGTGGTCGGCCGGAGTCACCTAGTGCAG	3620 fluorescence intensity (a.u.)
TAACAATATAAGATTCGACTATACATGTCAGCTTACTATGCGGAGTCACCTAGTGCAG	5130 fluorescence intensity (a.u.)
ATTGGAGATGATGTGACTGAAAAGTTGTGTGTGTATGACACGGAGTCACCTAGTGCAG	3620 fluorescence intensity (a.u.)
TTAATACTCACCACAAATGACACAAAATACGAGTTTTCGGCGGAGTCACCTAGTGCAG	15800 fluorescence intensity (a.u.)
ACCCGTACCTGTCCAGCCACGTTTGGCGTAACACCTGAACCGGAGTCACCTAGTGCAG	3850 fluorescence intensity (a.u.)
AGCACGCATACCACGCGCGGTTCCATGTCCCCACGTGTTGCGGAGTCACCTAGTGCAG	5590 fluorescence intensity (a.u.)
TGGCGGTGAAGCACTGAAGCGTGAGATACCTAAATTGTGCCGGAGTCACCTAGTGCAG	3360 fluorescence intensity (a.u.)
AAATGGGTCCCACACGGACATCCTACCCCACCTGTCACCACGGAGTCACCTAGTGCAG	3250 fluorescence intensity (a.u.)
AATGAAATCCTTTAAAATTTCTATGTATTTCCTTTGAATCCGGAGTCACCTAGTGCAG	33600 fluorescence intensity (a.u.)
TAATGCTGAATTGTAGCTGCATCAAGCCATCAACTCATACCGGAGTCACCTAGTGCAG	21600 fluorescence intensity (a.u.)
TGGCTATATCTTGGGGTACCCGTTGCAATTAGCACGCTCTCGGAGTCACCTAGTGCAG	30900 fluorescence intensity (a.u.)
GAGGTCAACGCAACGATTAAAACCCGCGCGAGCGAGCGCACGGAGTCACCTAGTGCAG	28700 fluorescence intensity (a.u.)
GTTCCAGCCCCAATTCCCTCTTGACGTCGTACCTTCTCCCCGGAGTCACCTAGTGCAG	3260 fluorescence intensity (a.u.)
GCGCAAGCCCAGCCGCCTCGTCGTGTTCGCGTTCGTCGCGCGGAGTCACCTAGTGCAG	3690 fluorescence intensity (a.u.)
ACTCCGACGGTGGCGCCACCATGATTTGGGTTCTTGCTGACGGAGTCACCTAGTGCAG	5070 fluorescence intensity (a.u.)
CTTTTGGCAAAATCCGTGATGCAGCATCGATCCCTGTCAACGGAGTCACCTAGTGCAG	39800 fluorescence intensity (a.u.)
CAGCGACATGGTCTCTAAAATACAACTTTGACTTCTTATTCGGAGTCACCTAGTGCAG	26700 fluorescence intensity (a.u.)
CGCCAAGTCTTCGAGGGCCCCACCTGTCAGCCGTGGACCCCGGAGTCACCTAGTGCAG	17900 fluorescence intensity (a.u.)
CGGTGCGGTGGAGGTTGGACAATGTGACGAAACCAGCGCTCGGAGTCACCTAGTGCAG	3270 fluorescence intensity (a.u.)
TTTCGATTTCGATCTCCATCGATCATTTCGGTTCAGGTTTCGGAGTCACCTAGTGCAG	4310 fluorescence intensity (a.u.)
GCGACCGCGATTTCATCCTATCCATCTACCGCAATGTTCGCGGAGTCACCTAGTGCAG	3150 fluorescence intensity (a.u.)
GCTCACGCCCTTTGCCTTGGCCACACGCCAGCGAATGACCCGGAGTCACCTAGTGCAG	3260 fluorescence intensity (a.u.)
CCATTCCGCCTCTCTCGGCCGGTCTCTCCTCGCGGGATAGCGGAGTCACCTAGTGCAG	3540 fluorescence intensity (a.u.)
AGTTGTTCTTCTCAGCAGGTTGCTGTCATCTTAGACTTTTCGGAGTCACCTAGTGCAG	4480 fluorescence intensity (a.u.)
CGCCGCCTCGTCACCGACCCCGCCTTCCACCGCCGCTTCCCGGAGTCACCTAGTGCAG	10400 fluorescence intensity (a.u.)
ATTAATGGCCTTGATTCTACCTATAGCTCAACAAATGGTTCGGAGTCACCTAGTGCAG	24300 fluorescence intensity (a.u.)

Taken from above.
Entry of ATTGGAGATGATGTGACTGAAAAGTTGTGTGTGTATGACACGGAGTCACCTAGTGCAG under binding signal: 3620 fluorescence intensity (a.u.)
Entry of CAGCGACATGGTCTCTAAAATACAACTTTGACTTCTTATTCGGAGTCACCTAGTGCAG under binding signal: 26700 fluorescence intensity (a.u.)
Entry of ATTAATGGCCTTGATTCTACCTATAGCTCAACAAATGGTTCGGAGTCACCTAGTGCAG under binding signal: 24300 fluorescence intensity (a.u.)

(listing goes on)

Sequence	binding signal
TTTAGATACCATCTTATTGCACATATTTGCAATATCCAAACGGAGTCACCTAGTGCAG	3260 fluorescence intensity (a.u.)
AAGGTTCTAGATGCAGTGAAATCAAGTGTGAAAAGTGGGGCGGAGTCACCTAGTGCAG	3160 fluorescence intensity (a.u.)
TTAGCCGGATACACTCATCCAGCATCTTCGTGGAATATTCCGGAGTCACCTAGTGCAG	3260 fluorescence intensity (a.u.)
GGTTTTATATAGTTTAGGGGTGAAGATTTCTGATTTTGTGCGGAGTCACCTAGTGCAG	3370 fluorescence intensity (a.u.)
GCAAAAGGAAATATATGCACCTTGTCGGGTCATCGTGGCTCGGAGTCACCTAGTGCAG	4260 fluorescence intensity (a.u.)
TGCTTCTTGCACCTCTCCTCCTCCACGCATTGCTTCTTGACGGAGTCACCTAGTGCAG	3880 fluorescence intensity (a.u.)
CTCTGCTCGCTCGCTCGCTCGTCTCCACACCTTCTCCTCCCGGAGTCACCTAGTGCAG	26700 fluorescence intensity (a.u.)
CAGCTTCTCTTCCTCCTGCAGTACTCGCCGCCACCACCACCGGAGTCACCTAGTGCAG	3420 fluorescence intensity (a.u.)
AGTAACAAAGCATATAGAAGAAAACAGTAGTTTTGACAGTCGGAGTCACCTAGTGCAG	3400 fluorescence intensity (a.u.)
TTTGAAATTTTGAATGTGACACCTATGGCCATGGTCGAACCGGAGTCACCTAGTGCAG	3350 fluorescence intensity (a.u.)
ACACATCAGAAGAAAAGTGTTGGCAATCCAGCCTGATCATCGGAGTCACCTAGTGCAG	3360 fluorescence intensity (a.u.)
GACGAGACCGACGCCGTCATCCTCCTTCTCACGCTACCATCGGAGTCACCTAGTGCAG	3300 fluorescence intensity (a.u.)
TGAGCCACGCACTGAACACGACCGTTCGATCCCCTCAAGGCGGAGTCACCTAGTGCAG	3810 fluorescence intensity (a.u.)
TTGGATCCAAACTTTAGTCCTTTTCCATCACATCAATCTGCGGAGTCACCTAGTGCAG	3500 fluorescence intensity (a.u.)
GGCGGTCGCCTGTGCTGGCTACGCGGGGATGGATGATGGTCGGAGTCACCTAGTGCAG	3360 fluorescence intensity (a.u.)
ATCCGTCCATCTCTCTTCCTCCCTCCCTTGCCTTCCGGACCGGAGTCACCTAGTGCAG	20800 fluorescence intensity (a.u.)
TTGCTACTTACTGGGTTTCAGTTGACATGGCTTTCGATGTCGGAGTCACCTAGTGCAG	3200 fluorescence intensity (a.u.)
ACGTCAGCCCAGCAGCATGCCACGATGTGTATTCGTGCCGCGGAGTCACCTAGTGCAG	3570 fluorescence intensity (a.u.)
CATTATCGTCCCATGTGTTGTCTGCATTGCGGCATGCGTTCGGAGTCACCTAGTGCAG	3630 fluorescence intensity (a.u.)
GATGCGCGCGAACGGAGACGACGGGGTAGGGTGGGGAGGGCGGAGTCACCTAGTGCAG	3940 fluorescence intensity (a.u.)
TTGACAGGATGCAAGCTGAGACACATCTGATGTCATATAACGGAGTCACCTAGTGCAG	4200 fluorescence intensity (a.u.)
CCCACATCGACCATCCTGCCTTGTACGTCATCCCCGCCCTCGGAGTCACCTAGTGCAG	7100 fluorescence intensity (a.u.)
ATAACAAAGATATAGTACTCCTACGTGGAATATATGTTTACGGAGTCACCTAGTGCAG	5200 fluorescence intensity (a.u.)
GGATCGAGAAGGAAGGAGGCGATGGATGGACTGACCTGGACGGAGTCACCTAGTGCAG	32400 fluorescence intensity (a.u.)
AGTTTATTTCTTGTATGTTTACATTATGCACACAATTGAGCGGAGTCACCTAGTGCAG	3170 fluorescence intensity (a.u.)
CTCATGTTCTTGACCCCTGCATCATCAAATACCTCACCTCCGGAGTCACCTAGTGCAG	4050 fluorescence intensity (a.u.)
TATCATTAGCAAATATTTACTGTAGCAACATATTGTCAAACGGAGTCACCTAGTGCAG	3180 fluorescence intensity (a.u.)
